Laboratory results taken from patent publication US20140199302A1 (GENERAL HOSPITAL, published 2014).
Results are given in words; binding and its absence hold for the method and conditions named. Some binding calls cover weakened binding; strength is not graded here. Where a sequence is shown, tags or fusion partners need not be part of it.

Protein sequences, listed by entry. Tags and fused reporters are not part of them. Residues count along the entry.
UniProt P22004, residues 382-513: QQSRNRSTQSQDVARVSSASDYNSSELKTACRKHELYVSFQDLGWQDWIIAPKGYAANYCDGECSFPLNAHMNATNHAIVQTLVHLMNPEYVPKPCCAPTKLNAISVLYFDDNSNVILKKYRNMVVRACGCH

Molecular target: human BMP6 (human) (UniProt P22004)
Assay: SPR (Biacore), human BMP6 immobilized on CM5 chip

B1: soluble human hemojuvelin with a HIS-tag (HJV.His) (receptor, UniProt Q6ZVN8 36-400, looked up, not shown: small tags and cut ends)
chain: QCKILRCNAEYVSSTLSLRGGGSSGALRGGGGGGRGGGVGSGGLCRALRSYALCTRRTARTCRGDLAFHSAVHGIEDLMIQHNCSRQGPTAPPPPRGPALPGAGSGLPAPDPCDYEGRFSRLHGRPPGFLHCASFGDPHVRSFHHHFHTCRVQGAWPLLDNDFLFVQATSSPMALGANATATRKLTIIFKNMQECIDQKVYQAEVDNLPVAFEDGSINGGDRPGGSSLSIQTANPGNHVEIQAAYIGTTIIIRQTAGQLSFSIKVAEDVAMAFSAEQDLQLCVGGCPPSQRLSRSERNRRGAITIDTARRLCKEGLPVEDAYFHSCVFDVLISGDPNFTVAAQAALEDARAFLPDLEKLHLFPSD
  binding: binds
